{
  "source": "patent US20120053076A1",
  "about": "“METHODS FOR IDENTIFICATION” (Cambridge Enterprise Limited, priority 2009, published 2012)",
  "tested_on": "C-reactive Protein (CRP)",
  "assay": "Clinical study in healthy subjects, serum C-reactive protein",
  "type": "in vivo, human",
  "settings": "humans, pre-dose versus last day of dosing",
  "note": "At least one structure is not confirmed: it was looked up by name or label, or the drawing left a doubt.",
  "data": [
    {"smiles": "C[C@H]1C[C@@H]2[C@H]([C@@H](O)C[C@@]3(C)[C@H]2CC[C@]3(O)C(=O)CO)[C@@]2(C)C=CC(=O)C=C12", "note": "[Medrol®, methylprednisolone]", "values": [
      {"measurement": "Effect on serum CRP level", "value": "lowered CRP to a similar extent"}
    ]}
  ]
}
